Test system: human patients
Experiment: Efficacy of topical opioid analgesic formulations in human patients (Example 6)
Format: in vivo
Source text: The efficacy of topical opioid analgesic formulations was studied in human patients.

CN1CC[C@]23c4c5ccc(O)c4O[C@H]2[C@@H](O)C=C[C@H]3[C@H]1C5.O=S(=O)(O)O [morphine sulfate] was tested, and the “duration of pain reduction” value (Patient G, 3 mg topical in Pass-gel to the nuchal region) was “several hours”, the “duration of pain reduction” value (Patient K, topical 2.5 mg to the nuchal region) was “several hours” and the “duration of pain reduction” value (Patient L, topical 2.5 mg to the nuchal region) was “the rest of the day”.

Reference: patent publication US20150352040A1 (priority 2010, published 2015)
